Results are given in words; binding and its absence hold for the method and conditions named. In cells and extracts the contact can be indirect. Some binding calls cover weakened binding; strength is not graded here. Each block holds one molecule with its values, some of them ahead of it.
Key:
Test in all cases: co-IP; endogenous proteins from whole-cell lysates of murine BMMs (WT, Tec-/-, Dectin-1-/-), left unstimulated or stimulated with C. albicans for 60 min; lysis in NP-40-containing buffer; precipitated with antibodies against CARD9, MALT1, ASC or caspase-8 on Dynabeads Protein G; immunoblot
[1] = target: T1, caspase-8 (mouse (endogenous in BMMs)) (UniProt O89110)
T1 sequence: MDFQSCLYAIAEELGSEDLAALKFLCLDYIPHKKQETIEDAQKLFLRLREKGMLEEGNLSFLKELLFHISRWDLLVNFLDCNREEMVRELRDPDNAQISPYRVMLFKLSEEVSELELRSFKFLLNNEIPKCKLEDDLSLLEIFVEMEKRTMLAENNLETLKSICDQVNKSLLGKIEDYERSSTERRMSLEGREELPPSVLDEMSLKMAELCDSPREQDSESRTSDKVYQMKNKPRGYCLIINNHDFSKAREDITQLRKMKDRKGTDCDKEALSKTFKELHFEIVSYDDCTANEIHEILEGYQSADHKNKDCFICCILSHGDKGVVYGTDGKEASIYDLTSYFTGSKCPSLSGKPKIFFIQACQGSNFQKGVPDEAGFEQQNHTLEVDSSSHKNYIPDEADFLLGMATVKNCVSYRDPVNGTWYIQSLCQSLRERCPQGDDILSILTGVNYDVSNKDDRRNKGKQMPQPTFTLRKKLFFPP

Protein sequences, listed by entry. Tags and fused reporters are not part of them.
UniProt Q2TBA3: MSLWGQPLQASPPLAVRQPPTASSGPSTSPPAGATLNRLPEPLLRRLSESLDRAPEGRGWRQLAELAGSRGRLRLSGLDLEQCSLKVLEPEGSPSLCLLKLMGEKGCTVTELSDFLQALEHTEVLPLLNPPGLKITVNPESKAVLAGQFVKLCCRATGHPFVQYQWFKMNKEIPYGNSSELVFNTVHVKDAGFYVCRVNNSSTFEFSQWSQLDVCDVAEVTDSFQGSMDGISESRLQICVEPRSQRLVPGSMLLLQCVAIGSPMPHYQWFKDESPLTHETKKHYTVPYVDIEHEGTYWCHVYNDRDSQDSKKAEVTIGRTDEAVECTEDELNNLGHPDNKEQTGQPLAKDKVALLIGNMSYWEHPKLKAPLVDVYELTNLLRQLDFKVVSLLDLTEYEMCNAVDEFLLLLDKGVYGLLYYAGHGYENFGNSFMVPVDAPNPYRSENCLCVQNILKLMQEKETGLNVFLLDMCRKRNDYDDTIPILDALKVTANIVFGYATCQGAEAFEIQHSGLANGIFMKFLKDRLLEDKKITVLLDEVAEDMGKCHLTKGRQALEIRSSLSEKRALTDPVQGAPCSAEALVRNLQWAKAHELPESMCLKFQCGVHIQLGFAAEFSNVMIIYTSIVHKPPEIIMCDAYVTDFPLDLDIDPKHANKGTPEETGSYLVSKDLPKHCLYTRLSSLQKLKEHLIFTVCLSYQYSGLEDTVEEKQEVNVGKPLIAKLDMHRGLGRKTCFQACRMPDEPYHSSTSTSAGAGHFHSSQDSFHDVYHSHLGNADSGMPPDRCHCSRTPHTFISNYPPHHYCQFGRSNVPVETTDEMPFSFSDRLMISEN

[2] = target: T2, ASC (mouse (endogenous in BMMs)) (UniProt Q9EPB4)
T2 sequence: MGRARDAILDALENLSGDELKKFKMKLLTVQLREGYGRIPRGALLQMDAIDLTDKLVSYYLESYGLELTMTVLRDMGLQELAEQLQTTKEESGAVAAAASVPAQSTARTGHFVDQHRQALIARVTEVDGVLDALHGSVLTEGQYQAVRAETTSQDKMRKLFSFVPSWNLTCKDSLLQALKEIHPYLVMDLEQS

[3] = target: T3, CARD9 (mouse (endogenous in BMMs)) (UniProt A2AIV8)
T3 sequence: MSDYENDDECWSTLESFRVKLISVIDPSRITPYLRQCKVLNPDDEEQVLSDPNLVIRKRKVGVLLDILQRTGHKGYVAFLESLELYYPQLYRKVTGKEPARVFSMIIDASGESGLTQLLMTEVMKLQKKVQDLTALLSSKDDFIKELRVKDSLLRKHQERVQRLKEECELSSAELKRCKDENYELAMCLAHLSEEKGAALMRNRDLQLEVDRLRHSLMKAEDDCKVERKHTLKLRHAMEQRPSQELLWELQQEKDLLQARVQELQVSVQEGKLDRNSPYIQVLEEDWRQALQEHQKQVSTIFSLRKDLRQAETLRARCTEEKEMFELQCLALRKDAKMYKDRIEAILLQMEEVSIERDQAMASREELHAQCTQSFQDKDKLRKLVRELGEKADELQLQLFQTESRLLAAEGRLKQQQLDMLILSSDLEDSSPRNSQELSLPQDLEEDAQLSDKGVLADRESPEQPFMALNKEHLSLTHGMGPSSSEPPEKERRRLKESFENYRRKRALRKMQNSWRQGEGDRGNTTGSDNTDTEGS

[4] = target: T4, caspase-8 (mouse (endogenous in BMMs)), O89110; conditions: remark: other sources report otherwise
T4 chain: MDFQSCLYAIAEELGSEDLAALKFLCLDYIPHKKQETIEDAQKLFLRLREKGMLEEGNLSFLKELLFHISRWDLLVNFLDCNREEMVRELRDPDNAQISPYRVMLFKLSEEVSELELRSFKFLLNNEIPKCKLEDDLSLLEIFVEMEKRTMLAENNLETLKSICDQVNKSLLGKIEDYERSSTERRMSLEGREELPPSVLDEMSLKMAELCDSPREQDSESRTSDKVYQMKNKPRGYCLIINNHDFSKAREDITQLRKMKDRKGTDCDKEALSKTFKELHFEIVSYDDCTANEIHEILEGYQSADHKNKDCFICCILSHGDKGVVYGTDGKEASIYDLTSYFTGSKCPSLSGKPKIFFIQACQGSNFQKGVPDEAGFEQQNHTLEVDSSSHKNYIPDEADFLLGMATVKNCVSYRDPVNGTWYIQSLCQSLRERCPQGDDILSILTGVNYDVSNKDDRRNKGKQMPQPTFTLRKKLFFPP

[5] = target: MALT1 (mouse (endogenous in BMMs)) (UniProt Q2TBA3)
[6] = target: T5, ASC (mouse (endogenous in BMMs)), Q9EPB4; conditions: remark: other sources report otherwise
T5 chain: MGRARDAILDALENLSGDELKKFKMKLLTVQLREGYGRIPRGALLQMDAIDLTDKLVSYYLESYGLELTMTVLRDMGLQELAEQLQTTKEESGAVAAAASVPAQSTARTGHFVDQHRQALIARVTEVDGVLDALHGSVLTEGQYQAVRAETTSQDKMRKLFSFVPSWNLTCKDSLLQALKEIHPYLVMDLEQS

Molecule: MALT1 (from UniProt Q2TBA3 1-832)
binding [1]: binds | binding [2]: binds | binding [3]: binds

B1: ASC, Q9EPB4 1-193 (protein)
chain: MGRARDAILDALENLSGDELKKFKMKLLTVQLREGYGRIPRGALLQMDAIDLTDKLVSYYLESYGLELTMTVLRDMGLQELAEQLQTTKEESGAVAAAASVPAQSTARTGHFVDQHRQALIARVTEVDGVLDALHGSVLTEGQYQAVRAETTSQDKMRKLFSFVPSWNLTCKDSLLQALKEIHPYLVMDLEQS
binding [4]: binds

B2: Bcl-10 (protein, UniProt Q9Z0H7 1-233)
chain: MEAPAPSLTEEDLTEVKKDALENLRVYLCEKIIAERHFDHLRAKKILSREDTEEISCRTSSRKRAGKLLDYLQENPRGLDTLVESIRREKTQSFLIQKITDEVLKLRNIKLEHLKGLKCSSCEPFAAGATNNLSRCNSDESNLSEKQRASTVMYHPEGESSTAPFFSMASSLNLPVLEVGRTENSSFSSATLPRPGDPGAPPLPPDLRLEEGGSCGNSSEMFLPLRSRALSRQ
binding [3]: binds

Further lines, results first:

binding [5]: binds
B3: caspase-8 (enzyme, UniProt O89110 1-480)
chain: MDFQSCLYAIAEELGSEDLAALKFLCLDYIPHKKQETIEDAQKLFLRLREKGMLEEGNLSFLKELLFHISRWDLLVNFLDCNREEMVRELRDPDNAQISPYRVMLFKLSEEVSELELRSFKFLLNNEIPKCKLEDDLSLLEIFVEMEKRTMLAENNLETLKSICDQVNKSLLGKIEDYERSSTERRMSLEGREELPPSVLDEMSLKMAELCDSPREQDSESRTSDKVYQMKNKPRGYCLIINNHDFSKAREDITQLRKMKDRKGTDCDKEALSKTFKELHFEIVSYDDCTANEIHEILEGYQSADHKNKDCFICCILSHGDKGVVYGTDGKEASIYDLTSYFTGSKCPSLSGKPKIFFIQACQGSNFQKGVPDEAGFEQQNHTLEVDSSSHKNYIPDEADFLLGMATVKNCVSYRDPVNGTWYIQSLCQSLRERCPQGDDILSILTGVNYDVSNKDDRRNKGKQMPQPTFTLRKKLFFPP

binding [6]: binds
B4: caspase-8, O89110 1-480 (enzyme)
chain: MDFQSCLYAIAEELGSEDLAALKFLCLDYIPHKKQETIEDAQKLFLRLREKGMLEEGNLSFLKELLFHISRWDLLVNFLDCNREEMVRELRDPDNAQISPYRVMLFKLSEEVSELELRSFKFLLNNEIPKCKLEDDLSLLEIFVEMEKRTMLAENNLETLKSICDQVNKSLLGKIEDYERSSTERRMSLEGREELPPSVLDEMSLKMAELCDSPREQDSESRTSDKVYQMKNKPRGYCLIINNHDFSKAREDITQLRKMKDRKGTDCDKEALSKTFKELHFEIVSYDDCTANEIHEILEGYQSADHKNKDCFICCILSHGDKGVVYGTDGKEASIYDLTSYFTGSKCPSLSGKPKIFFIQACQGSNFQKGVPDEAGFEQQNHTLEVDSSSHKNYIPDEADFLLGMATVKNCVSYRDPVNGTWYIQSLCQSLRERCPQGDDILSILTGVNYDVSNKDDRRNKGKQMPQPTFTLRKKLFFPP

Reference: PMC4256681
